This is one part of the list. Many values rest on one well or one pass, so single values are uncertain.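 Cells were imaged in 1,536-well plates, and nuclei stained with an antibody against cleaved PARP were counted against all DNA-stained nuclei to give the apoptosis fraction. Screening doses were chosen to leave most cells alive, and resting and induced cleaved-PARP levels differ strongly between cell lines.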
Key:
Assay in all cases: cleaved PARP positive nuclei fraction relative to DMSO control; melanoma cells; higher = more apoptosis
Details in all cases: library dose: low library concentration; 72 h
MZ2-MEL = test system: MZ2-MEL
MeWo = test system: MeWo
RPMI7951 = test system: RPMI7951
RVH-421 = test system: RVH-421
SkMel28 = test system: SkMel28
SkMel2 = test system: SkMel2
SkMel30 = test system: SkMel30
SkMel5 = test system: SkMel5
UACC257 = test system: UACC257
UACC62 = test system: UACC62
WM115 = test system: WM115
WM1716 = test system: WM1716
WM1745 = test system: WM1745
WM3526 = test system: WM3526
WM3619 = test system: WM3619
WM451Lu = test system: WM451Lu

Structure (SMILES)	cleaved PARP positive nuclei fraction (MZ2-MEL)	cleaved PARP positive nuclei fraction (MeWo)	cleaved PARP positive nuclei fraction (RPMI7951)	cleaved PARP positive nuclei fraction (RVH-421)	cleaved PARP positive nuclei fraction (SkMel28)	cleaved PARP positive nuclei fraction (SkMel2)	cleaved PARP positive nuclei fraction (SkMel30)	cleaved PARP positive nuclei fraction (SkMel5)	cleaved PARP positive nuclei fraction (UACC257)	cleaved PARP positive nuclei fraction (UACC62)	cleaved PARP positive nuclei fraction (WM115)	cleaved PARP positive nuclei fraction (WM1716)	cleaved PARP positive nuclei fraction (WM1745)	cleaved PARP positive nuclei fraction (WM3526)	cleaved PARP positive nuclei fraction (WM3619)	cleaved PARP positive nuclei fraction (WM451Lu)
Cn1c(Nc2ccc(C(F)(F)F)cc2)nc2cc(Oc3ccnc(-c4ncc(C(F)(F)F)[nH]4)c3)ccc21 + CO[C@@H]1[C@H](N(C)C(=O)c2ccccc2)C[C@H]2O[C@]1(C)n1c3ccccc3c3c4c(c5c6ccccc6n2c5c31)C(=O)NC4 [Midostaurin] (first compound 0.08 µM, partner dose 0.08 µM)	147%	176%	77.6%	145%	361%	142%	92.2%	409%	112%	200%	416%	264%	207%	229%	120%	124%
OCc1c[nH]c2ccccc12 [Indole-3-carbinol] + COc1ccc(-c2ccc3c(N4CCOCC4)nc(N4C[C@@H](C)O[C@@H](C)C4)nc3n2)cc1CO [KU0063794] (first compound 0.8 µM, partner dose 0.02 µM)	65.9%	98.2%	151%	237%	147%	69.7%	68.6%	156%	235%	136%	114%	159%	90.8%	65.6%	70.4%	41.2%
Cc1ccc(NC(=O)c2cccc(N(C)C)c2)cc1NC(=O)c1ccc(O)cc1 + CO[C@@H]1[C@H](N(C)C(=O)c2ccccc2)C[C@H]2O[C@]1(C)n1c3ccccc3c3c4c(c5c6ccccc6n2c5c31)C(=O)NC4 [Midostaurin] (first compound 2 µM, partner dose 0.08 µM)	149%	129%	178%	103%	27.3%	120%	71.1%	81.8%	220%	81.8%	244%	139%	104%	52.2%	134%	162%
Clc1ccc(Nc2nnc(Cc3ccncc3)c3ccccc23)cc1 [vatalanib] + c1cc(-c2cnn3cc(-c4ccc(OCCN5CCCCC5)cc4)cnc23)ccn1 [Dorsomorphin] (first compound 2 µM, partner dose 0.4 µM)	138%	538%	100%	48.4%	259%	89.1%	74.7%	94.5%	131%	85.7%	56.3%	87.9%	128%	71.2%	77.9%	407%
C[C@]1(c2nc3c(C(N)=O)cccc3[nH]2)CCCN1 [Veliparib] + NCC(=O)Nc1ccc(-n2nc(C(F)(F)F)cc2-c2ccc3c(ccc4ccccc43)c2)cc1 [OSU03012] (first compound 1.4 µM, partner dose 1 µM)	48.2%	234%	76.7%	126%	40.7%	178%	277%	31.8%	142%	133%	59.9%	78.6%	92.7%	115%	106%	80.6%
CC(=O)c1c(C)c2cnc(Nc3ccc(N4CCNCC4)cn3)nc2n(C2CCCC2)c1=O [palbociclib] + COc1cc2ncnc(Nc3ccc(Oc4ccccc4)cc3)c2cc1OC [SrcI1] (first compound 0.04 µM, partner dose 2 µM)	201%	106%	200%	189%	272%	125%	75.3%	245%	357%	159%	152%	181%	134%	114%	133%	222%
CC(=O)c1c(C)c2cnc(Nc3ccc(N4CCNCC4)cn3)nc2n(C2CCCC2)c1=O [palbociclib] + COC(=O)c1sccc1S(=O)(=O)Nc1ccc(Nc2ccccc2)cc1OC [GSK0660] (first compound 0.04 µM, partner dose 1 µM)	126%	54.1%	95%	140%	51.1%	44.3%	166%	54.1%	72.6%	318%	71.6%	15.7%	107%	113%	15.9%	267%
CC(C)(C)c1cnc(CSc2cnc(NC(=O)C3CCNCC3)s2)o1 + CN(NC(=O)CC(=O)NN(C)C(=S)c1ccccc1)C(=S)c1ccccc1 [STA4783] (first compound 0.01 µM, partner dose 0.006 µM)	72.5%	37.1%	96.4%	71.4%	40.8%	144%	154%	59.4%	292%	284%	127%	98.7%	186%	157%	212%	218%
Cn1nnc2c(C(N)=O)ncn2c1=O [temozolomide] + O=C(Nc1cccc(Cl)c1)Nc1ncc(CCNc2ncnc3ccsc23)s1 [SNS314] (first compound 2 µM, partner dose 0.0008 µM)	52.2%	141%	34.1%	162%	78.4%	79.5%	62.3%	141%	76.4%	72%	92.5%	82.9%	87.6%	53.9%	118%	39.9%
Clc1ccc(Nc2nnc(Cc3ccncc3)c3ccccc23)cc1 [vatalanib] + CCN(CC)CCCCNc1ncc2cc(-c3cc(OC)cc(OC)c3)c(NC(=O)NC(C)(C)C)nc2n1 [PD173074] (first compound 2 µM, partner dose 0.1 µM)	139%	102%	184%	183%	78.6%	101%	140%	153%	103%	37.2%	100%	79%	102%	453%	79.2%	65.2%
COc1cc(Nc2ncc(F)c(Nc3ccc4c(n3)NC(=O)C(C)(C)O4)n2)cc(OC)c1OC [Tamatinib] + CN(C)S(=O)(=O)c1ccc2c(c1)/C(=C/c1cc3c([nH]1)CCCC3)C(=O)N2 [SU6656] (first compound 0.4 µM, partner dose 0.4 µM)	222%	65.4%	124%	96.3%	104%	47.4%	203%	137%	80.2%	479%	414%	172%	247%	68.7%	83.6%	25.6%
CC(=O)c1c(C)c2cnc(Nc3ccc(N4CCNCC4)cn3)nc2n(C2CCCC2)c1=O [palbociclib] + CO[C@@H]1[C@H](N(C)C(=O)c2ccccc2)C[C@H]2O[C@]1(C)n1c3ccccc3c3c4c(c5c6ccccc6n2c5c31)C(=O)NC4 [Midostaurin] (first compound 0.04 µM, partner dose 0.08 µM)	87.1%	175%	174%	104%	67.8%	134%	103%	52.1%	138%	125%	114%	143%	119%	77.6%	137%	48.7%
C[C@]1(c2nc3c(C(N)=O)cccc3[nH]2)CCCN1 [Veliparib] + C[C@@H]1CCN(C(=O)CC#N)C[C@@H]1N(C)c1ncnc2[nH]ccc12 [CP690550] (first compound 1.4 µM, partner dose 1 µM)	108%	87.4%	134%	134%	45.4%	65.2%	72.7%	60.6%	189%	568%	315%	159%	125%	55.3%	110%	29.3%
C=CCn1c(=O)c2cnc(Nc3ccc(N4CCN(C)CC4)cc3)nc2n1-c1cccc(C(C)(C)O)n1 + O=C(Nc1cccc(Cl)c1)Nc1ncc(CCNc2ncnc3ccsc23)s1 [SNS314] (first compound 0.02 µM, partner dose 0.0008 µM)	119%	42%	107%	244%	117%	45.7%	57.7%	126%	138%	58.6%	336%	69.8%	112%	88.2%	102%	84.2%
Clc1ccc(Nc2nnc(Cc3ccncc3)c3ccccc23)cc1 [vatalanib] + COc1cc(N2CCC(N3CCN(C)CC3)CC2)ccc1Nc1ncc(Cl)c(Nc2ccccc2S(=O)(=O)C(C)C)n1 [NVP-TAE684] (first compound 2 µM, partner dose 0.08 µM)	75.6%	156%	41.1%	178%	146%	114%	115%	39.5%	123%	287%	506%	147%	122%	37.7%	1490%	112%
CO[C@@H]1[C@H](N(C)C(=O)c2ccccc2)C[C@H]2O[C@]1(C)n1c3ccccc3c3c4c(c5c6ccccc6n2c5c31)C(=O)NC4 [Midostaurin] + O=C(Nc1cccc(Cl)c1)Nc1ncc(CCNc2ncnc3ccsc23)s1 [SNS314] (first compound 0.08 µM, partner dose 0.0008 µM)	202%	247%	75.2%	52.5%	58.7%	139%	124%	69.3%	67.6%	205%	389%	45.9%	223%	129%	122%	109%
CC(=O)c1c(C)c2cnc(Nc3ccc(N4CCNCC4)cn3)nc2n(C2CCCC2)c1=O [palbociclib] + O=C(Nc1ccccc1)c1cc([N+](=O)[O-])ccc1Cl [GW9662] (first compound 0.04 µM, partner dose 2 µM)	66.8%	90.5%	134%	174%	94.6%	153%	70.4%	111%	108%	213%	61.7%	205%	107%	114%	191%	77.4%

In a second layout: results already given.
Structure (SMILES),cleaved PARP positive nuclei fraction (MZ2-MEL),cleaved PARP positive nuclei fraction (MeWo),cleaved PARP positive nuclei fraction (RPMI7951),cleaved PARP positive nuclei fraction (RVH-421),cleaved PARP positive nuclei fraction (SkMel28),cleaved PARP positive nuclei fraction (SkMel2),cleaved PARP positive nuclei fraction (SkMel30),cleaved PARP positive nuclei fraction (SkMel5),cleaved PARP positive nuclei fraction (UACC257),cleaved PARP positive nuclei fraction (UACC62),cleaved PARP positive nuclei fraction (WM115),cleaved PARP positive nuclei fraction (WM1716),cleaved PARP positive nuclei fraction (WM1745),cleaved PARP positive nuclei fraction (WM3526),cleaved PARP positive nuclei fraction (WM3619),cleaved PARP positive nuclei fraction (WM451Lu)
"Cn1nnc2c(C(N)=O)ncn2c1=O [temozolomide] + O=C(Nc1cccc(Cl)c1)Nc1ncc(CCNc2ncnc3ccsc23)s1 [SNS314] (first compound 2 µM, partner dose 0.0008 µM)",52.2%,141%,34.1%,162%,78.4%,79.5%,62.3%,141%,76.4%,72%,92.5%,82.9%,87.6%,53.9%,118%,39.9%
"Clc1ccc(Nc2nnc(Cc3ccncc3)c3ccccc23)cc1 [vatalanib] + CCN(CC)CCCCNc1ncc2cc(-c3cc(OC)cc(OC)c3)c(NC(=O)NC(C)(C)C)nc2n1 [PD173074] (first compound 2 µM, partner dose 0.1 µM)",139%,102%,184%,183%,78.6%,101%,140%,153%,103%,37.2%,100%,79%,102%,453%,79.2%,65.2%
